# Data from the supplement of paper PMC10032668.
# By UniProt entry, the sequences of proteins in these tests, tags left out.
# YY1, P25490, UniProt P25490, whole entry: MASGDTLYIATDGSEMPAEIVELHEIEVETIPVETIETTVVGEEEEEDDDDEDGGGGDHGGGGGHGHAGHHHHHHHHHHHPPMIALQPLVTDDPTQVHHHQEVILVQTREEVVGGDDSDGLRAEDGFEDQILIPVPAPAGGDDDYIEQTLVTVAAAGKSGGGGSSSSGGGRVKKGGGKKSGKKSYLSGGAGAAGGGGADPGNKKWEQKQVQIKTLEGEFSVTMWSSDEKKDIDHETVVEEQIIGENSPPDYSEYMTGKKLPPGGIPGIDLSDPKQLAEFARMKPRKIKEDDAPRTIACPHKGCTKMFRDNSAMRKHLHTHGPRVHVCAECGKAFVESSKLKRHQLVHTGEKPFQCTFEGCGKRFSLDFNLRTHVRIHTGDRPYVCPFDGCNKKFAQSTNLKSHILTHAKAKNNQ
# EEF1A2, Q05639, UniProt Q05639, whole entry: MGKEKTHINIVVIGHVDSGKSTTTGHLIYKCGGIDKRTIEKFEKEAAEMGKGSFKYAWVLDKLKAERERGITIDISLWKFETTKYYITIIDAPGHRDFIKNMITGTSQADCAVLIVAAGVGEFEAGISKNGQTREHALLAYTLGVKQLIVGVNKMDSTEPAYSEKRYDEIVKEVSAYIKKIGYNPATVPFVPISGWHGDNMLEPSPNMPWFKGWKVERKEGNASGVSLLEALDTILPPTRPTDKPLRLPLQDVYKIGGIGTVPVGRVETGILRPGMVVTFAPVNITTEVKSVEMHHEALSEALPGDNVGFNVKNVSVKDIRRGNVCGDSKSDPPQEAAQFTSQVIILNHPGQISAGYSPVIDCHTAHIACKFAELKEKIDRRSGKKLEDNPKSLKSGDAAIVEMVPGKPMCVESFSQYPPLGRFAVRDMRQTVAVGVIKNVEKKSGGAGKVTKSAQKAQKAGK
# The other results are listed elsewhere or left out. Only hits are listed; about a third recur on repeated control peptides.
# B1: PEX2 (peptide)
# chain: GTGKRDLQRRHGFQK
# B2: RNF10 (peptide)
# chain: MKAENRCRRRPPPAL
# B3: RP11-140K17.3_2 (peptide)
# chain: EMSTSLSVVPRQLNF
# Columns and labels:
# Experiment in all cases: PRISMA enrichment of interactor (LFQ) in peptide spot vs all other peptide spots (log2 fold change); higher = stronger / more specific binding of the interactor to the peptide
# ANP32B, Q92688 = biological target: ANP32B, Q92688
# Experimental: (§1)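 PRISMA: 15-aa overlapping tiles (offset 8 aa) of 60 microproteins, plus SOS1/GLUT1 control peptides, were spot-synthesized on cellulose membranes in triplicate. Membranes were incubated with benzonase-treated HEK293T lysate, and bound proteins were identified by LC-MS/MS with LFQ. Enrichment is the log2 fold change of each protein in one spot versus all other spots. Only interactors passing the significance cutoff are listed.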
# BSG, P35613 = biological target: BSG, P35613
# Experimental: as §1
# CGGBP1, Q9UFW8 = biological target: CGGBP1, Q9UFW8
# Experimental: as §1
# CYC1, P08574 = biological target: CYC1, P08574
# Experimental: as §1
# ETFA, P13804 = biological target: ETFA, P13804
# Experimental: as §1
# MRPL18, Q9H0U6 = biological target: MRPL18, Q9H0U6
# Experimental: as §1
# NAP1L1, P55209 = biological target: NAP1L1, P55209
# Experimental: as §1
# SCAF11, Q99590 = biological target: SCAF11, Q99590
# Experimental: as §1
# URB1, O60287 = biological target: URB1, O60287
# Experimental: as §1
# BRD2, P25440 = biological target: BRD2, P25440
# Experimental: as §1
# C1QBP, Q07021 = biological target: C1QBP, Q07021
# Experimental: as §1
# CCT8, P50990 = biological target: CCT8, P50990
# Experimental: as §1
# GRB2, P62993 = biological target: GRB2, P62993
# Experimental: as §1
# MRPL9, Q9BYD2 = biological target: MRPL9, Q9BYD2
# Experimental: as §1
# PPHLN1, Q8NEY8 = biological target: PPHLN1, Q8NEY8
# Experimental: as §1
# RAB8A, P61006 = biological target: RAB8A, P61006
# Experimental: as §1
# SRSF5, Q13243 = biological target: SRSF5, Q13243
# Experimental: as §1
# TMEM214, Q6NUQ4 = biological target: TMEM214, Q6NUQ4
# Experimental: as §1
# TRMT5, Q32P41 = biological target: TRMT5, Q32P41
# Experimental: as §1
# YY1, P25490 = biological target: YY1, P25490
# Experimental: as §1
# ANP32E, Q9BTT0 = biological target: ANP32E, Q9BTT0
# Experimental: as §1
# BZW1, Q7L1Q6 = biological target: BZW1, Q7L1Q6
# Experimental: as §1
# EEF1A2, Q05639 = biological target: EEF1A2, Q05639
# Experimental: as §1
# ESYT2, A0FGR8 = biological target: ESYT2, A0FGR8
# Experimental: as §1
# KRT6B, P04259 = biological target: KRT6B, P04259
# Experimental: as §1
# MEPCE, Q7L2J0 = biological target: MEPCE, Q7L2J0
# Experimental: as §1
# MTG1, Q9BT17 = biological target: MTG1, Q9BT17
# Experimental: as §1
# NOL10, Q9BSC4 = biological target: NOL10, Q9BSC4
# Experimental: as §1
# NUDT16L1, Q9BRJ7 = biological target: NUDT16L1, Q9BRJ7
# Experimental: as §1
# PAK1IP1, Q9NWT1 = biological target: PAK1IP1, Q9NWT1
# Experimental: as §1
# PSMG1, O95456 = biological target: PSMG1, O95456
# Experimental: as §1
# RBM8A, Q9Y5S9 = biological target: RBM8A, Q9Y5S9
# Experimental: as §1
# TFAM, Q00059 = biological target: TFAM, Q00059
# Experimental: as §1
# TMEM201, Q5SNT2 = biological target: TMEM201, Q5SNT2
# Experimental: as §1
# ZNF483, Q8TF39 = biological target: ZNF483, Q8TF39
# Experimental: as §1
# ZNF668, Q96K58 = biological target: ZNF668, Q96K58
# Experimental: as §1
binder,measurement,setting,value
B1,PRISMA enrichment of interactor (log2),"ANP32B, Q92688",5.8
same,PRISMA enrichment of interactor (log2),"BSG, P35613",5.5
same,PRISMA enrichment of interactor (log2),"CGGBP1, Q9UFW8",4.91
same,PRISMA enrichment of interactor (log2),"CYC1, P08574",8.72
same,PRISMA enrichment of interactor (log2),"ETFA, P13804",6.86
same,PRISMA enrichment of interactor (log2),"MRPL18, Q9H0U6",4.45
same,PRISMA enrichment of interactor (log2),"NAP1L1, P55209",4.48
same,PRISMA enrichment of interactor (log2),"SCAF11, Q99590",5.72
same,PRISMA enrichment of interactor (log2),"URB1, O60287",7.05
B2,PRISMA enrichment of interactor (log2),"ANP32B, Q92688",5.98
same,PRISMA enrichment of interactor (log2),"BRD2, P25440",4.36
same,PRISMA enrichment of interactor (log2),"C1QBP, Q07021",5.79
same,PRISMA enrichment of interactor (log2),"CCT8, P50990",4.75
same,PRISMA enrichment of interactor (log2),"GRB2, P62993",4.72
same,PRISMA enrichment of interactor (log2),"MRPL9, Q9BYD2",6.77
same,PRISMA enrichment of interactor (log2),"PPHLN1, Q8NEY8",5.76
same,PRISMA enrichment of interactor (log2),"RAB8A, P61006",6.65
same,PRISMA enrichment of interactor (log2),"SRSF5, Q13243",4.88
same,PRISMA enrichment of interactor (log2),"TMEM214, Q6NUQ4",6.43
same,PRISMA enrichment of interactor (log2),"TRMT5, Q32P41",5.54
same,PRISMA enrichment of interactor (log2),"YY1, P25490",5.76
B3,PRISMA enrichment of interactor (log2),"ANP32E, Q9BTT0",7.18
same,PRISMA enrichment of interactor (log2),"BZW1, Q7L1Q6",5.39
same,PRISMA enrichment of interactor (log2),"EEF1A2, Q05639",8.48
same,PRISMA enrichment of interactor (log2),"ESYT2, A0FGR8",4
same,PRISMA enrichment of interactor (log2),"KRT6B, P04259",4.81
same,PRISMA enrichment of interactor (log2),"MEPCE, Q7L2J0",4.82
same,PRISMA enrichment of interactor (log2),"MTG1, Q9BT17",5.67
same,PRISMA enrichment of interactor (log2),"NOL10, Q9BSC4",7.09
same,PRISMA enrichment of interactor (log2),"NUDT16L1, Q9BRJ7",5.06
same,PRISMA enrichment of interactor (log2),"PAK1IP1, Q9NWT1",4.74
same,PRISMA enrichment of interactor (log2),"PSMG1, O95456",5.55
same,PRISMA enrichment of interactor (log2),"RBM8A, Q9Y5S9",4.62
same,PRISMA enrichment of interactor (log2),"TFAM, Q00059",8.71
same,PRISMA enrichment of interactor (log2),"TMEM201, Q5SNT2",6.19
same,PRISMA enrichment of interactor (log2),"ZNF483, Q8TF39",4.97
same,PRISMA enrichment of interactor (log2),"ZNF668, Q96K58",6.61

# Part of the list above, tab-delimited:
binder	measurement	setting	value
B1	PRISMA enrichment of interactor (log2)	SCAF11, Q99590	5.72
B2	PRISMA enrichment of interactor (log2)	ANP32B, Q92688	5.98
